Test results: PubChem BioAssay (NCATS)
Inconclusive means that the source gave no clear call. Such entries were picked first, then a sample of the others. For part of these data: A potency beside an inconclusive call is a rough fit, not a confirmed value. Calls of active or inactive are those of the source. Unless noted, calls come from the whole dose curve; as a rule, active = well fitted curve in the direction sought with a large enough effect; inconclusive = small, poorly fitted or top-dose-only effect, or another doubt; inactive = no such curve, though single readings can be large; an effect the other way counts as inactive or inconclusive.

Sequences of proteins named here, by UniProt entry; tags and fusion partners are left off. A change or cut given only in a name is not applied to a line headed by its entry.
UniProt Q99816: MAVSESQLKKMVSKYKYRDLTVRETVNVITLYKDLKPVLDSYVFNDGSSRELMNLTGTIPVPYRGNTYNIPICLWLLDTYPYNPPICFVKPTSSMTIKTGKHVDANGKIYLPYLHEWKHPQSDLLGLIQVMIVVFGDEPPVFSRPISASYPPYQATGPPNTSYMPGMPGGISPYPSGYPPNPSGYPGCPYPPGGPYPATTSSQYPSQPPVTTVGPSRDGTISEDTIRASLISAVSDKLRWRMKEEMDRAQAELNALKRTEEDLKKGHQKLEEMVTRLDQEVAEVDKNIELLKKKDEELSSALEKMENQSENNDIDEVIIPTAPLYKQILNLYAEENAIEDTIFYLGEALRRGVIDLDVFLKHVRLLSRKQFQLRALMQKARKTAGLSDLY

Molecular target: Tumor susceptibility gene 101 protein (Homo sapiens) (UniProt Q99816)
Assay: qHTS Assay for Iinhibitors of HIV-1 Budding by Blocking the Interaction of PTAP/TSG101: Hit Validation (AID 651600); note: nearly all actives have a fitted effect of over 70% in size; note: potency is the fitted concentration of half-maximal effect; for activity change, negative = inhibition: % is set by controls: 0 for no effect and ±100 for the full control effect
Conditions: PTAP peptide/TSG101 UEV interaction, biochemical assay; series mostly up to 57.5 µM; activity change, negative = inhibition: at the top concentration
Method in brief: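 Fluorescence polarization binding assay: Tsg101 binding domain (10 uM) mixed with compounds and FITC-labeled PTAP peptide (50 nM) in HEPES pH 7.5, 0.15 M NaCl, 0.01% Tween 20, EDTA, TCEP; 20 min at r.t.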

SMILES | Potency | activity change, negative = inhibition
Cc1ccc2c(c1)c1nc3ccccc3nc1n2C | inconclusive: 25.9 µM [inhibitor, single point] | 
CC1=CC(=C(C#N)c2nc3ccccc3s2)C=C(C)N1c1ccc(F)cc1F | active: 13 µM | 
CCN(CC)CCCNc1ccc2ncn3c4ccc(O)cc4c(=O)c1c23 | active: 4.61 µM | 
O=C1c2ccccc2S(=O)(=O)c2cc(N3CCN(C(=O)c4ccccc4)CC3)ccc21 |  | inactive: -20.7%
CC1CCCN(Cc2c(O)ccc3c2O/C(=C\c2ccco2)C3=O)C1 (stereo not given) | active: 14.6 µM | 
COc1cccc2c1C(=O)c1c(O)c3c(c(O)c1C2=O)C[C@](O)(C(C)=O)C[C@H]3O[C@@H]1C[C@@H](N)[C@@H](O)[C@@H](C)O1 | active: 14.6 µM | 
CCC(=O)Nc1ccc(NC(=O)C23CC4CC(CC(C4)C2)C3)cn1 | inconclusive: 46.1 µM [inhibitor, single point] | 
COCCCNC(=O)C(C#N)c1nc2ccccc2nc1N1CCCC1 (stereo not given) | inconclusive: 36.6 µM [inhibitor, single point] | 
COc1ccc2nc3ccccc3nc2c1NC(=O)c1ccccc1Cl | inconclusive: 46.1 µM [inhibitor, single point] | 
O=C(Nc1ccccc1F)C(=Cc1sc(N2CCOCC2)nc1-c1ccccc1)C(=O)Nc1ccccc1F | inconclusive: 8.19 µM [inhibitor, full curve, poor fit] | 
O=S(=O)(Nc1nc2n(n1)C(c1ccccc1)C=C(c1ccc(Cl)cc1)N2)c1ccccc1 (stereo not given) |  | inactive: -16.2%
Cc1cc(=O)c2c([nH]1)c(C)cc1[nH]c(C)c(C)c12 |  | inactive: 13.6%
COc1ccc2c(C=Nc3c(C)n(C)n(-c4ccccc4)c3=O)c(O)n(Cc3ccco3)c(=O)c2c1 | active: 29.1 µM | 
O=C1c2ccccc2-c2onc3ccc(N4CCCC4)c1c23 | inconclusive: 29.1 µM [inhibitor, partial curve] | 
CC(=O)Nc1ccc(S(=O)(=O)Nc2nc3n(n2)C(c2ccccc2)C=C(c2ccc(Cl)cc2)N3)cc1 (stereo not given) |  | inactive: 0.553%
N#Cc1c(SCC(=O)Nc2nc3ccc(Br)cc3s2)sc2c(O)cc(=O)[nH]c12 |  | inactive: -21.8%
Cc1ccc(CSc2nnc3c(n2)OC2(Nc4ccccc4-3)C(=O)Nc3ccc(F)cc32)cc1 (stereo not given) |  | inactive: -4.93%
CCCCCCn1c(=O)[nH]c2nc3cc(N)ccc3nc2c1=O | active: 14.6 µM | 
O=[N+]([O-])c1cc(Cl)c2cccnc2c1O |  | inactive: -1.11%
Cn1c(=O)c(Nc2ccc(O)cc2)c2c3c(cccc31)C(=O)c1ccccc1-2 | inconclusive: 16.3 µM [inhibitor, partial curve, poor fit] | 

System: not listed separately
Assay: qHTS assay for small molecule agonists of the antioxidant response element (ARE) signaling pathway (AID 651741; active = well fitted activation curve with a large enough effect in the signal ratio; inconclusive = small, poorly fitted or top-dose-only effect, or effect the other way, or a change in a side signal; the % refers to the signal ratio; note: potency is the fitted concentration of half-maximal effect; for activation: % of control where 0% means no effect)
Conditions: HepG2 ARE-bla reporter, beta-lactamase FRET ratio, 16 h; activation: at 96 µM (top of the series) unless noted
Method in brief: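 ARE-bla HepG2 cells (beta-lactamase reporter under ARE control) were plated at 2,000 cells/well, preincubated 5 h at 37 C/5% CO2, then treated with DMSO-dissolved compounds for 16 h at 37 C; LiveBLAzer B/G FRET substrate added, fluorescence read after 2 h at room temperature.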

SMILES | activation | Potency
CCCCC(CC)COC(=O)CS (stereo not given) | inconclusive: 1.23% | 
CO[Si](CCCNCCN)(OC)OC | inconclusive: 3.2% | 
COc1ccccc1[N+](=O)[O-] |  | inactive
C=Cc1ccccc1C=C |  | inconclusive: 66.8 µM [activator, partial curve, poor fit]
CC(C)N=C=NC(C)C | inactive: 3.68% | 
CCCCCCOCCOCCO |  | inconclusive: 61.1 µM [activator, single point]
O=C(O)c1cccc(Cl)c1Cl | inactive: 0.0269% | 
O=C(O)c1ccccc1C(=O)O | inconclusive: 3.24% | 
C=C(C)C(=O)OC | inactive: 7.56% | 
Cc1ccc(C#N)cc1 |  | inconclusive: 75 µM [activator, partial curve, poor fit]
CC(=O)OCc1ccc2c(c1)OCO2 | inactive: 0.787% | 

Record cards, from the list above.
`COc1ccccc1[N+](=O)[O-]` in the list: Potency: inactive
`Cc1ccc(C#N)cc1` in the list: Potency: inconclusive: 75 µM [activator, partial curve, poor fit]
`O=C(O)c1ccccc1C(=O)O` in the list: activation: inconclusive: 3.24%
`C=Cc1ccccc1C=C` in the list: Potency: inconclusive: 66.8 µM [activator, partial curve, poor fit]

System: not listed separately
Assay: qHTS assay to identify small molecules that stimulate interleukin-8 (IL-8) secretion (AID 651758; active = well fitted activation curve with a large enough effect in the signal ratio; inconclusive = small, poorly fitted or top-dose-only effect, or effect the other way, or a change in a side signal; the % refers to the signal ratio; note: 0% is about no effect)
Conditions: HTRF ratio (665/615); activation: at 92.2 µM (top of the series)
Method in brief: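 THP-1, 2000 cells/well; cpd 16 h, 37 C; add cryptate + XL665 anti-IL-8 Abs; RT 1-3 h; TR-FRET read.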

SMILES | activation
O=P(O)(OCc1ccccc1)OCc1ccccc1 | inconclusive: -17.7%
CC(CCl)OC(C)CCl (stereo not given) | inactive: -12%
C=Cc1ccccc1C=C | inactive: -8.29%
CC(C)N=C=NC(C)C | inactive: 22%
O=C(O)c1cccc(Cl)c1Cl | inconclusive: 8.55%
C=C(C)C(=O)OC | inconclusive: 20.5%
Cc1ccc(C#N)cc1 | inconclusive: 9.02%
CC(=O)OCc1ccc2c(c1)OCO2 | inactive: -12.8%

System: not listed separately
Assay: qHTS for Inhibitors of Ubiquitin-specific Protease USP2a Using CHOP2 as the Reporter: K633 Counterscreen (AID 652168); for activity change, negative = inhibition: % of control where 0% means no effect
Conditions: No-enzyme DiUb K48 IQF substrate fluorescence interference, kinetic; series mostly up to 57.5 µM; activity change, negative = inhibition: at the top concentration
Method in brief: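 Cell-free interference counterscreen without USP2a: compounds pinned into enzyme-free buffer (20 mM Tris pH 8, 2 mM beta-mercaptoethanol, 0.05% Chaps), then DiUb K48-4IQF substrate added (100 nM stock); fluorescence read kinetically, Ex 525/Em 598.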

SMILES | Potency | activity change, negative = inhibition
Cc1ccc(S(=O)(=O)Nc2ccccc2C(=O)Nc2ccc(-c3ccccc3)cc2)cc1 | inconclusive: 2.43 µM [inhibitor, full curve] | 
Cc1ccc(-c2cc(C(=O)N3CCCCC3)c3ccccc3n2)cc1C |  | inactive: -24.6%
O=C(Nc1ccc(S(=O)(=O)Nc2nccs2)cc1)c1ccc2ccccc2c1 | inconclusive: 2.43 µM [inhibitor, full curve, poor fit] | 
Cc1ccc(S(=O)(=O)n2cc(C(=O)Nc3nc(-c4ccccc4)cs3)c3ccccc32)cc1 | inconclusive: 19.3 µM [inhibitor, partial curve] | 
O=C(Nc1ccc(S(=O)(=O)Nc2nccs2)cc1)C1CCC2(CCC2)CC1 | inconclusive: 21.7 µM [inhibitor, partial curve] | 
Cc1ccc(S(=O)(=O)Nc2ccccc2C(=O)Nc2cccc(-c3ccccc3)c2)cc1 | inconclusive: 2.17 µM [inhibitor, full curve] | 
